PubChem BioAssay AID1259415 (National Center for Advancing Translational Sciences (NCATS), 2018)
In all, about 410,000 compounds went through this assay and about 18,000 (4.4%) were called active. The inconclusive results got no clear call from the source; some entries with a clear call stand among them for comparison. Cut-off read from the data, not from the text of the source: active = activity change below about -60%; inconclusive = no clear call, values can overlap the other calls; inactive = above about -39%.
% is set by controls: 0 for no effect and ±100 for the full control effect.

Experiment: qHTS Assay for inhibitors of the human cytomegalovirus (HCMV)
Conditions: HFF cells, HCMV-luciferase reporter, 72 h; at 57.5 µM; active compounds read low
From the text: NCGC Assay Overview: Infection with human cytomegalovirus (HCMV) continues to pose significant threats for pregnant women and immunocompromised hosts. HCMV causes serious morbidity and mortality in transplant recipients, and congenital HCMV is the leading infectious cause of mental retardation and deafness in children. In the 1990s, the annual costs associated with the disease burden of congenital CMV were estimated at around $2 billion. A HCMV vaccine is not available yet and HCMV therapies result in intolerable side effects and emergence of drug resistant viruses. […] Towards this goal we have developed and characterized a luciferase HCMV reporter that was initially used in 96 well plates and then optimized to 1536-well plates for utilization in screening of the MLSMR collection, the NGCG diversity collection and the NCGC Pharmaceutical Collection of approved and investigational drugs.
NCGC Assay Protocol Summary:
This is a cell-based assay for HCMV inhibition in HFFs cells. The screening used 2 compound doses and the HCMV-luciferase at MOI of 1 PFU/cell. Cells were treated and infected with HCMV. At 72 h post infection cell lysates were collected and luciferase activity was determined using the Glomax-Multi + Detection System (Promega, Madison, WI). Data were normalized to the controls for basal activity (buffer only) and known HCMV inhibitors Salinmoycin.
1536-well assay protocol for the assay:
(1) Add 3 ul CMV/HFF cell culture. 1000 cells/well in DMEM nirmal media.
(2) Incubate 16 hr at 37C.
(3) Add 23 nl control compound, 10uM of Salinomycin.
(4) Add 23 nl compounds in DMSO solution.
(5) Add 3 ul CMV suspension. Final 1 puf/ul, Virus stock 2000pfu/ul
(6) Incubate 72 hrs at 37C.
(7) Add 4 ul OneGlo Luc Reagent.
(8) Incubate 5 min at room temperature.
With `CCCC1S/C(=N/N=C/c2ccc(OC)cc2)N(Cc2ccc(OC)cc2)C1=O` (stereo not given) the activity change, negative = inhibition was inconclusive: -50.5%. With `COc1ccc(-c2coc3c(C(=O)Nc4cccnc4)cccc23)c(C)c1` the activity change, negative = inhibition was inconclusive: -48.4%. For `CCOc1cc(C(c2c(C)[nH][nH]c2=O)c2c(C)[nH][nH]c2=O)cc(Br)c1OC`, the activity change, negative = inhibition was inconclusive: -58%. For `NS(=O)(=O)c1ccc(CCNC(=O)C(=O)NCC2OCCN2C(=O)c2ccc3c(c2)OCO3)cc1` (stereo not given), the activity change, negative = inhibition was inconclusive: -54.5%. For `O=C(N/N=C1\CC(c2ccccc2)Oc2ccccc21)c1ccc(O)cc1` (stereo not given), the activity change, negative = inhibition was inconclusive: -42%. For `Cc1c(Cl)cccc1NC(=S)NCCc1ccccn1`, the activity change, negative = inhibition was active: -68.7%. With `COc1ccc(NC(=O)C(C)Sc2cc(-c3ccccc3)nc(C)n2)cc1Cl` (stereo not given) the activity change, negative = inhibition was inconclusive: -42.2%. With `O=C(CSc1nnc(NC(=O)Cc2ccccc2)s1)NCC1CCCO1` (stereo not given) the activity change, negative = inhibition was inconclusive: -43.4%. For `Cc1ccc(C)c(NC(=S)NCc2ccccc2)c1`, the activity change, negative = inhibition was inactive: 6.24%. For `O=C(Cc1ccccc1)Nc1nnc(-c2cccs2)s1`, the activity change, negative = inhibition was inactive: 77.9%. In the case of `Cc1cc(OCc2cc(C(=O)N3CCC(Oc4cccnc4)CC3)no2)cc(C)c1Cl`, the activity change, negative = inhibition is reported as inactive: -2.58%. In the case of `Cc1ccc(OCC(=O)Nc2ccc3oc(=O)ccc3c2)cc1C`, the activity change, negative = inhibition is reported as inconclusive: -42.7%. With `CCOc1ncccc1C(=O)Nc1cc(S(=O)(=O)N2CCCCC2)ccc1C` the activity change, negative = inhibition was inactive: 2.35%. With `CN(C)C(=O)C(=O)c1c(-c2ccccc2)cc2ccccn12` the activity change, negative = inhibition was inconclusive: -44.9%. With `CCOC(=O)C1=CCN(S(=O)(=O)c2ccccc2C)C1c1cccc(C)c1` (stereo not given) the activity change, negative = inhibition was inconclusive: -47.9%. In the case of `CCn1nc(C)c(Br)c1-c1nc(CS(=O)(=O)c2ccsc2)no1`, the activity change, negative = inhibition is reported as inactive: 19%. With `COc1ccc(C(=O)N2CCC2)cc1S(=O)(=O)NCc1ccc(Cl)cc1` the activity change, negative = inhibition was inactive: -11%. For `CCOCCCNc1c2c(nc3cc(-c4ccc(F)cc4)nn13)CCC2`, the activity change, negative = inhibition was inactive: 2.77%. For `C=CCn1c2ccccc2c2nnc(SCC(=O)Nc3cc(C)on3)nc21`, the activity change, negative = inhibition was inactive: 0.557%. With `Cc1cc(Cl)ccc1OC(C)C(=O)NNC(=O)C1CCCCC1C(=O)O` (stereo not given) the activity change, negative = inhibition was inconclusive: -46.1%. With `CN(CC(=O)O)S(=O)(=O)/C=C/c1ccccc1` the activity change, negative = inhibition was inconclusive: -44%. For `C/C(=N\NC(=O)CNC(=O)C(c1ccccc1)c1ccccc1)c1ccc(C(C)(C)C)cc1`, the activity change, negative = inhibition was active: -75.6%. With `Clc1cccc(CN2CCCCCC2)c1Cl` the activity change, negative = inhibition was inactive: -13.4%. With `Cn1cc(C(=O)NCCc2ccccc2)c(=O)c2cc(S(=O)(=O)N3CCCCCC3)ccc21` the activity change, negative = inhibition was inactive: 6.08%. With `O=C(COc1cccc2ccccc12)N/N=C/C=C/c1ccccc1` the activity change, negative = inhibition was active: -62%.
